From the supplement of paper PMC4604168 (melanoma cell lines)
Some of the results follow. Many values rest on one well or one pass, so single values are uncertain.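 The apoptosis fraction was the count of cleaved-PARP antibody-stained nuclei relative to all DNA-stained nuclei, imaged in 1,536-well plates. Screening doses were set so most cells survived, and baseline and induced cleaved-PARP levels vary greatly across cell lines.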

Legend:
Test in all cases: cleaved PARP positive nuclei fraction relative to DMSO control; melanoma cells; higher = more apoptosis
Settings in all cases: library dose: low library concentration; 72 h
501Mel = system: 501Mel
A101D = system: A101D
A2058 = system: A2058
A375 = system: A375
C32 = system: C32
CBRC008 = system: CBRC008 (line from a melanoma biopsy)
CBRC014 = system: CBRC014 (line from a melanoma biopsy)
CBRC016 = system: CBRC016 (line from a melanoma biopsy)
CBRC017 = system: CBRC017 (line from a melanoma biopsy)
CBRC034 = system: CBRC034 (line from a melanoma biopsy)
COLO792 = system: COLO792
COLO800 = system: COLO800
COLO829 = system: COLO829
G361 = system: G361
IPC-298 = system: IPC-298
IST-MEL1 = system: IST-MEL1
LB2518-MEL = system: LB2518-MEL
LOXIMVI = system: LOXIMVI
MEL-HO = system: MEL-HO
CBRC013 = system: CBRC013 (line from a melanoma biopsy)

SMILES | cleaved PARP positive nuclei fraction (501Mel) | cleaved PARP positive nuclei fraction (A101D) | cleaved PARP positive nuclei fraction (A2058) | cleaved PARP positive nuclei fraction (A375) | cleaved PARP positive nuclei fraction (C32) | cleaved PARP positive nuclei fraction (CBRC008) | cleaved PARP positive nuclei fraction (CBRC014) | cleaved PARP positive nuclei fraction (CBRC016) | cleaved PARP positive nuclei fraction (CBRC017) | cleaved PARP positive nuclei fraction (CBRC034) | cleaved PARP positive nuclei fraction (COLO792) | cleaved PARP positive nuclei fraction (COLO800) | cleaved PARP positive nuclei fraction (COLO829) | cleaved PARP positive nuclei fraction (G361) | cleaved PARP positive nuclei fraction (IPC-298) | cleaved PARP positive nuclei fraction (IST-MEL1) | cleaved PARP positive nuclei fraction (LB2518-MEL) | cleaved PARP positive nuclei fraction (LOXIMVI) | cleaved PARP positive nuclei fraction (MEL-HO) | cleaved PARP positive nuclei fraction (CBRC013)
CCCS(=O)(=O)Nc1ccc(F)c(C(=O)c2c[nH]c3ncc(Cl)cc23)c1F + CC(=O)c1c(C)c2cnc(Nc3ccc(N4CCNCC4)cn3)nc2n(C2CCCC2)c1=O [palbociclib] (first compound 0.08 µM, partner dose 0.04 µM) | 256% | 55.8% | 39.5% | 599% | 98.9% | 126% | 109% | 153% | 115% | 63.8% | 111% | 59.6% | 68% | 203% | 108% | 152% | 136% | 164% | 125% | –
CS(=O)(=O)CCNCc1ccc(-c2ccc3ncnc(Nc4ccc(OCc5cccc(F)c5)c(Cl)c4)c3c2)o1 [lapatinib] + NCC(=O)Nc1ccc(-n2nc(C(F)(F)F)cc2-c2ccc3c(ccc4ccccc43)c2)cc1 [OSU03012] (first compound 0.8 µM, partner dose 1 µM) | 215% | 154% | 149% | 1900% | 58.8% | 182% | 96.5% | 103% | 104% | – | 241% | 90.4% | 132% | 168% | 206% | 120% | 80.6% | 44.4% | 69.7% | 100%
C[C@@H](Oc1cc(-c2cnn(C3CCNCC3)c2)cnc1N)c1c(Cl)ccc(F)c1Cl [Crizotinib] + CNC(=O)c1cc(Oc2ccc(NC(=O)Nc3ccc(Cl)c(C(F)(F)F)c3)cc2)ccn1 [sorafenib] (first compound 0.2 µM, partner dose 0.4 µM) | 228% | 93% | 243% | 78.6% | 118% | 59.7% | 111% | 116% | 82% | 87.6% | 68.7% | 48.3% | 125% | 126% | 51.7% | 62.3% | 263% | 57.5% | 120% | –
CNC(=O)c1cc(Oc2ccc(NC(=O)Nc3ccc(Cl)c(C(F)(F)F)c3)cc2)ccn1 [sorafenib] + Nc1ncn([C@H]2C[C@H](O)[C@@H](CO)O2)c(=O)n1 [decitabine] (first compound 0.4 µM, partner dose 0.1 µM) | 80.8% | 103% | 84% | 40% | 79.7% | 33.5% | 82.6% | 145% | 86.8% | 54.6% | 54.9% | 59.3% | 66.2% | 47.7% | 63.7% | 151% | 57.2% | 122% | 111% | –
Cn1c(=O)n(-c2ccc(C(C)(C)C#N)cc2)c2c3cc(-c4cnc5ccccc5c4)ccc3ncc21 + C=CCn1c(=O)c2cnc(Nc3ccc(N4CCN(C)CC4)cc3)nc2n1-c1cccc(C(C)(C)O)n1 [MK1775] (first compound 0.004 µM, partner dose 0.02 µM) | 159% | 263% | 52.4% | 339% | 44.9% | 121% | 91.8% | 164% | 98.8% | – | 163% | 70.6% | 139% | 132% | 102% | 226% | 180% | 68.6% | 71.5% | 149%
O=C(O)[C@@H]1[O][Sb](=[O])([O][Sb]2(=[O])[O][C@H]([C@H](O)CO)[C@H](O)[C@H](C(=O)O)[O]2)[O][C@H]([C@H](O)CO)[C@@H]1O (some centres undefined) [stibogluconate] + Cn1c(Nc2ccc(C(F)(F)F)cc2)nc2cc(Oc3ccnc(-c4ncc(C(F)(F)F)[nH]4)c3)ccc21 [CHIR265] (first compound 2 µM, partner dose 0.08 µM) | 374% | 41.9% | 182% | 202% | 90.2% | 77.7% | 92.2% | 87.5% | 114% | 33.5% | 188% | 180% | 64% | 196% | 263% | 134% | 169% | 36.5% | 271% | –
Cc1cc(Nc2cc(N3CCN(C)CC3)nc(/C=C/c3ccccc3)n2)n[nH]1 + Clc1ccc(Nc2nnc(Cc3ccncc3)c3ccccc23)cc1 [vatalanib] (first compound 0.04 µM, partner dose 2 µM) | 114% | 93.4% | 146% | 70.7% | 134% | 73.8% | 110% | 122% | 127% | 121% | 81.7% | 146% | 155% | 63% | 59.9% | 91.7% | 50.1% | 111% | 41.5% | –
C=C(c1ccc(C(=O)O)cc1)c1cc2c(cc1C)C(C)(C)CCC2(C)C [Bexarotene] + O=C(O)c1ccc(-c2c[nH]c3ncc(-c4ccccc4)cc23)cc1C1CCCC1 [GSK650394] (first compound 2 µM, partner dose 0.16 µM) | 83.6% | 70.3% | 70.5% | 50.2% | 72.7% | 169% | 103% | 135% | 123% | – | 129% | 55.6% | 119% | 85% | 169% | 295% | 58.5% | 53.5% | 167% | 91%
CC(C)C[C@H](NC(=O)[C@H](Cc1ccccc1)NC(=O)c1cnccn1)B(O)O [Bortezomib] + CNC(=O)c1cc(Oc2ccc(NC(=O)Nc3ccc(Cl)c(C(F)(F)F)c3)cc2)ccn1 [sorafenib] (first compound 0.001 µM, partner dose 0.4 µM) | 449% | 1510% | 153% | 80.5% | 76.7% | 488% | 182% | 2230% | 320% | 239% | 76.8% | 98.2% | 341% | 4630% | 140% | 78.7% | 370% | 77.9% | 209% | –
Nc1nc(F)nc2c1ncn2[C@@H]1O[C@H](CO)[C@@H](O)[C@@H]1O [fludarabine] + O=C(CCCCCCC(=O)Nc1ccccc1)NO [vorinostat] (first compound 0.2 µM, partner dose 0.08 µM) | 3830% | 77.3% | 194% | 7330% | 144% | 72.6% | 95% | 132% | 180% | – | 104% | 179% | 80.6% | 147% | 46.3% | 205% | 41% | 141% | 155% | 162%
Nc1ccn([C@@H]2O[C@H](CO)[C@@H](O)C2(F)F)c(=O)n1 [gemcitabine] + C[C@]1(c2nc3c(C(N)=O)cccc3[nH]2)CCCN1 [Veliparib] (first compound 0.0004 µM, partner dose 1.4 µM) | 64.4% | 316% | 133% | 145% | 137% | 62.2% | 416% | 165% | 115% | 167% | 169% | 150% | 111% | 170% | 102% | 97.1% | 110% | 58.6% | 98.1% | –
